Results as given in the supplement of paper PMC10849652.
Some of the results follow.

The chains behind the UniProt entries cited, without tags or fusion partners. Where a name states a change or a piece, a line headed by the entry shows the natural chain unless it says otherwise.
UniProt O15127: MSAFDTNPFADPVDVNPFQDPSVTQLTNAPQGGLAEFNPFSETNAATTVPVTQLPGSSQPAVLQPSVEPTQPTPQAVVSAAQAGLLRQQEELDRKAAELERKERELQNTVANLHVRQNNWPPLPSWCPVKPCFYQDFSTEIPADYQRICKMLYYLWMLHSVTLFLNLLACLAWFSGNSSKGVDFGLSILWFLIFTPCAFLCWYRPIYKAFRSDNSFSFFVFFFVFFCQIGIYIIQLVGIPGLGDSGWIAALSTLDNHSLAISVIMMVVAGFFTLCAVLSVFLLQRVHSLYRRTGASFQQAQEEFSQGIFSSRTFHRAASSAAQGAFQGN
UniProt O15027: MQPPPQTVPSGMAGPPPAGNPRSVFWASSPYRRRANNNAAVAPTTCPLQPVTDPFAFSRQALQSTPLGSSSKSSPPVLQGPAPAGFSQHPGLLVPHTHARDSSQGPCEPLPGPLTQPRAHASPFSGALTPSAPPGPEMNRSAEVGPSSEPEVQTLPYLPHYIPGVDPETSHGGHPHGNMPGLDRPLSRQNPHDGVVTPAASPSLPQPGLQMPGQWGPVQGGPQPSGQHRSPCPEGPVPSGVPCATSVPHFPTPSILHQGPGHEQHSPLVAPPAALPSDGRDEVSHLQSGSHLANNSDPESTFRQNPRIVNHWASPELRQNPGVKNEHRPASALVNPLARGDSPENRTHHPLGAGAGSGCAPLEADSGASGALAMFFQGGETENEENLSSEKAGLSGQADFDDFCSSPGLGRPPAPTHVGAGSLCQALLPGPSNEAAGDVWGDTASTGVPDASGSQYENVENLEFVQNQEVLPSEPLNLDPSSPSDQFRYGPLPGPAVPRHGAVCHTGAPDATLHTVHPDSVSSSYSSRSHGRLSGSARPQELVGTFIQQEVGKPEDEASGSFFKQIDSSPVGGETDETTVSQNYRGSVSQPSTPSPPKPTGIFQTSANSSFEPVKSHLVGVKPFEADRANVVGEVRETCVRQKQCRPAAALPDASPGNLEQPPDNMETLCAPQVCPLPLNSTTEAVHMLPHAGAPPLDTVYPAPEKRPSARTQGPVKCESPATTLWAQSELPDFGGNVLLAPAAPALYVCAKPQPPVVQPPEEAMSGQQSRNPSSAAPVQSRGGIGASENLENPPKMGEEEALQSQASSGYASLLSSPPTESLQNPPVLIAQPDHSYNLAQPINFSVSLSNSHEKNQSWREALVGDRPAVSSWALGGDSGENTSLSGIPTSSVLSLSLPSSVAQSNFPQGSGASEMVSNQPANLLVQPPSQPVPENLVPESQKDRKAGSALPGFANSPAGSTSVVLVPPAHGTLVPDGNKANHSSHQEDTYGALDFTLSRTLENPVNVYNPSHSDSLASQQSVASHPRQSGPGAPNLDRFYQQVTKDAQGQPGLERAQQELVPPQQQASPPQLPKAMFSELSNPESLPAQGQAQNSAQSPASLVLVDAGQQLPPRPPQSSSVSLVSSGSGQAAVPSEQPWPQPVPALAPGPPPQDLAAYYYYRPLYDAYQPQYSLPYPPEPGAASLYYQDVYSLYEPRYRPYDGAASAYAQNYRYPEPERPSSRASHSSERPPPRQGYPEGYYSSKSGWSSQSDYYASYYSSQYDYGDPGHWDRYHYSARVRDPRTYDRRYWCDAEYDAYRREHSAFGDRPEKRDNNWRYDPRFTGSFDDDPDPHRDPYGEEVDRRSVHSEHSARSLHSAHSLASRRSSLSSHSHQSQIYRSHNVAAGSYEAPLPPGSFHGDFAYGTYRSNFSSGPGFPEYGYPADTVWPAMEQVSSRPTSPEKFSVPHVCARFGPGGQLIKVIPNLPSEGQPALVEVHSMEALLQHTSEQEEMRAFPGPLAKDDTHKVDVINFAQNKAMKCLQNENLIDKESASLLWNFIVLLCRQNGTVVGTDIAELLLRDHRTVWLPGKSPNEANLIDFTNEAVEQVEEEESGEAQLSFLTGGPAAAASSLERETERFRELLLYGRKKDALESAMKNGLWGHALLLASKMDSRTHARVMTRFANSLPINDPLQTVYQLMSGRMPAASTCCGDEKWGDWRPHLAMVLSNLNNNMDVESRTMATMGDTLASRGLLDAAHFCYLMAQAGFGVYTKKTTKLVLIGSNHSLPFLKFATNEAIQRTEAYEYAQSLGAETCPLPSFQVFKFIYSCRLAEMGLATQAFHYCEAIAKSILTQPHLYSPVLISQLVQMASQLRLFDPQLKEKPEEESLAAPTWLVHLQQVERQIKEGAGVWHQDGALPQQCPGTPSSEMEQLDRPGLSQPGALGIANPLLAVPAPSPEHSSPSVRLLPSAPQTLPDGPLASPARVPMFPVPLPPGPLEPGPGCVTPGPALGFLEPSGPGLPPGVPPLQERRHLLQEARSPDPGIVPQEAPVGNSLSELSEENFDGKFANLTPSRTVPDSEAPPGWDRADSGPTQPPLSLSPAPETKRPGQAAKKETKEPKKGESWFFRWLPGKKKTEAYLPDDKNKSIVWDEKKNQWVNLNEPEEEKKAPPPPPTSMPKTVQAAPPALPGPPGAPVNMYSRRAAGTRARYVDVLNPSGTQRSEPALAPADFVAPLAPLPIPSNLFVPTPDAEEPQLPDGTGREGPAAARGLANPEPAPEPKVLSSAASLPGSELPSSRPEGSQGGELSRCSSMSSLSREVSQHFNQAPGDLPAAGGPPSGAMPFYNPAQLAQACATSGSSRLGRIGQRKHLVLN
UniProt Q9UHR5: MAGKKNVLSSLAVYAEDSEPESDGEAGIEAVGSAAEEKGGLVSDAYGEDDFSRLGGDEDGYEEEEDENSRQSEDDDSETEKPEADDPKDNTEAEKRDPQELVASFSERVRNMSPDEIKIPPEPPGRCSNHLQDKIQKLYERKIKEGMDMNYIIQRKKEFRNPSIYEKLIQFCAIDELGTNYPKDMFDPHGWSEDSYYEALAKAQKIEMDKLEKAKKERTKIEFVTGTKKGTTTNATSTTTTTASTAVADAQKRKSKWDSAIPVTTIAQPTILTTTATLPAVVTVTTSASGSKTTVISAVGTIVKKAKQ
UniProt O15126: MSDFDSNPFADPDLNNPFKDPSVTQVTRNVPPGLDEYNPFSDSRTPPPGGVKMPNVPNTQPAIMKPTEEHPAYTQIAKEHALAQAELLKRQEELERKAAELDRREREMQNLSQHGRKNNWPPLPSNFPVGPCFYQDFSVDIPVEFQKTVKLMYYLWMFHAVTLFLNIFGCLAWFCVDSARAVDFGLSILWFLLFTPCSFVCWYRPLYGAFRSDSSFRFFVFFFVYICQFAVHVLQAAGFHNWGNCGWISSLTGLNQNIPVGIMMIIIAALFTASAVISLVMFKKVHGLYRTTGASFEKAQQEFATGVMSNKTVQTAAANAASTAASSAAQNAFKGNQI
UniProt O95248: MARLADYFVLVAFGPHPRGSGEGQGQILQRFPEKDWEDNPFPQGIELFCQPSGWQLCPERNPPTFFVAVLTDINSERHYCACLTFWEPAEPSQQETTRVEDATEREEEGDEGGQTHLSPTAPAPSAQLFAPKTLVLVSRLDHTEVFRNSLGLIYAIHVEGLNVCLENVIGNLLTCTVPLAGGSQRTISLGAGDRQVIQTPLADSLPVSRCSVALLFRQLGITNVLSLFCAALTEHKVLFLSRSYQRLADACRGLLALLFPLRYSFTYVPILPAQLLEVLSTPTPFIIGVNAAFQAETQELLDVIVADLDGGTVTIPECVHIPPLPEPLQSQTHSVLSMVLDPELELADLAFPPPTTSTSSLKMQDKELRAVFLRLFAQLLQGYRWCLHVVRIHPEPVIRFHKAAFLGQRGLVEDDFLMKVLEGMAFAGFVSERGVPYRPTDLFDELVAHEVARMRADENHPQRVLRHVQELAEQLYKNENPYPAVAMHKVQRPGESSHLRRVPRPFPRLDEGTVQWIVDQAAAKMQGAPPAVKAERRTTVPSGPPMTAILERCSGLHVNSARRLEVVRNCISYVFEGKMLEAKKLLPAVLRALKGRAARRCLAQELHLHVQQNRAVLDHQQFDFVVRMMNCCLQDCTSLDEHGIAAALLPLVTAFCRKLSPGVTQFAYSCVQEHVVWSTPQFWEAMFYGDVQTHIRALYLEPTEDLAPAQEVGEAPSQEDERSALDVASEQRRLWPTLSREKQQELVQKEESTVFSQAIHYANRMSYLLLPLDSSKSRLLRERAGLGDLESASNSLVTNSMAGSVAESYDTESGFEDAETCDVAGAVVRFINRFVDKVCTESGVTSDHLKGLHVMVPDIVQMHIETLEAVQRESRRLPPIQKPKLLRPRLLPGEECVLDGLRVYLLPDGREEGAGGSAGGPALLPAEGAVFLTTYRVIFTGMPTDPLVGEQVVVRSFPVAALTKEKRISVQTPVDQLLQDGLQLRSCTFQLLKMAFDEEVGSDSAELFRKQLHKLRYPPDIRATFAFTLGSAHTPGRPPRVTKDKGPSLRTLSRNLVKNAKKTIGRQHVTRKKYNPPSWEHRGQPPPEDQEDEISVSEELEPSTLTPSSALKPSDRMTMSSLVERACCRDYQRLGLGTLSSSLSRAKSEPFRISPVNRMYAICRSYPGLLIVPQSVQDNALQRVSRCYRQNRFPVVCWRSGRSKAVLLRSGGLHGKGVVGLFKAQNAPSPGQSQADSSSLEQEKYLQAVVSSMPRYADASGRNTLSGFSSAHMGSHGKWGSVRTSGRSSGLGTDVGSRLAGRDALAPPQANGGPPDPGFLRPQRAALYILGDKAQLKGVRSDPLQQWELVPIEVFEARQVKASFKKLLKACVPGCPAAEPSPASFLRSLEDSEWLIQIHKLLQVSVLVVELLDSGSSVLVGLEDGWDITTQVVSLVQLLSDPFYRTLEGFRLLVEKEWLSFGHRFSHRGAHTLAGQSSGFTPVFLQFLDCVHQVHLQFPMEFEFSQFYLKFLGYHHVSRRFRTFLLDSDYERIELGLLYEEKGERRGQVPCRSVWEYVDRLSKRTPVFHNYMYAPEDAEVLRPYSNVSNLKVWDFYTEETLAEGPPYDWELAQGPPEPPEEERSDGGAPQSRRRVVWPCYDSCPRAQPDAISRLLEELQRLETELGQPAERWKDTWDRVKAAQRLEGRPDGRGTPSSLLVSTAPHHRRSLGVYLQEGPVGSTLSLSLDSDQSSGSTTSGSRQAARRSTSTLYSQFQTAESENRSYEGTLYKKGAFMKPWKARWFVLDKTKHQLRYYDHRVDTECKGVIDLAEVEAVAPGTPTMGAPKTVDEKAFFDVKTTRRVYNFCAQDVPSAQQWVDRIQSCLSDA
UniProt Q8WTV0: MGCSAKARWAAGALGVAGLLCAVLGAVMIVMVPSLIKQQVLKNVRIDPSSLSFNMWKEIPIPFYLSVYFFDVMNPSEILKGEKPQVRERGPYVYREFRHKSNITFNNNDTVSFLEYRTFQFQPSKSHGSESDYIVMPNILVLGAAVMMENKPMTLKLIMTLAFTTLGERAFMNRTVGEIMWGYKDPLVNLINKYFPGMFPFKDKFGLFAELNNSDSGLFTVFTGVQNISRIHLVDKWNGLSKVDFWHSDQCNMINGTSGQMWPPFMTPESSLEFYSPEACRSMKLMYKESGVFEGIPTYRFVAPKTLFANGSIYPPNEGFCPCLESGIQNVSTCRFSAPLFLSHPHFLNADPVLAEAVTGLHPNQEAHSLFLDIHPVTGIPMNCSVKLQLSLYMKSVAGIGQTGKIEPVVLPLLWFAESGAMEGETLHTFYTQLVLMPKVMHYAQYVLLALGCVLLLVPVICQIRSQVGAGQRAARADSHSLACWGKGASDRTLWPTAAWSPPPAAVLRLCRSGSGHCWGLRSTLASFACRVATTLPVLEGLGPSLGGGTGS
UniProt Q969E2: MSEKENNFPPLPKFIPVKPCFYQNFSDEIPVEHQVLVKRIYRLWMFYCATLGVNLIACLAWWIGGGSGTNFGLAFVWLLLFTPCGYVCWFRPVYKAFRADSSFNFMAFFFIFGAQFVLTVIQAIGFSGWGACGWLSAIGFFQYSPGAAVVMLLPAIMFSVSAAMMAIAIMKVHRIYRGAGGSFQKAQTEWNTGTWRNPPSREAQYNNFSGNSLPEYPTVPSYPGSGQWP
UniProt Q9HB40: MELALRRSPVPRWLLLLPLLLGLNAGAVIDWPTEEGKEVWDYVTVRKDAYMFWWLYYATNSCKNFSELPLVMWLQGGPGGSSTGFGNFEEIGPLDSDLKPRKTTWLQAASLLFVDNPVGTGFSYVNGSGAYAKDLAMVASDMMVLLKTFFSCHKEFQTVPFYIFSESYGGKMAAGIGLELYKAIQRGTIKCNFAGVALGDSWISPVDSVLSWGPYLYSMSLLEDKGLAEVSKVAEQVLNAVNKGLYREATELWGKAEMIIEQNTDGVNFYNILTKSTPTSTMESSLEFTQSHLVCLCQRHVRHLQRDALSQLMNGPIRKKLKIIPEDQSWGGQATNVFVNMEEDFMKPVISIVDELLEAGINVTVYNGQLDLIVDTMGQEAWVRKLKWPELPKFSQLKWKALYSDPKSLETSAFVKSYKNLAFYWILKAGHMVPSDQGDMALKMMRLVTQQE

Assays:
Assay in all cases: log2 fold change, soluble protein after heating vs DMSO (PISA); higher = thermal stabilisation; K562 lysate, 10 uM; active = over 0.2 and 3.5 SD of the protein, either way, in both replicates (recomputed)
alvocidib = compound: CN1CC[C@H](c2c(O)cc(O)c3c(=O)cc(-c4ccccc4Cl)oc23)[C@H](O)C1 [alvocidib]
Procedure, shortened: (§1)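 The values are log-two fold changes in thermal stability compared with solvent controls and come from duplicates. They were obtained by TMTpro 16plex LC-MS/MS, with channel sums equalised, on the supernatant after 21,000xg for 90 min. That supernatant came from crude K562 extract at 1 mg/mL protein treated with 10 μM compound for 30 min, heated for 3 min across 48°C-58°C, pooled and brought to 0.5% NP-40 at 4°C.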

Tubastatin A = compound: CN1CCc2c(c3ccccc3n2Cc2ccc(C(=O)NO)cc2)C1 [Tubastatin A]
Procedure, shortened: as §1

[1] = compound: CNC(=O)C1=CC=CC=C1NC2=NC(=NC=C2Cl)NC3=C(C=C(C=C3)N4CCOCC4)OC
Procedure, shortened: as §1

defactinib = compound: CNC(=O)c1ccc(Nc2ncc(C(F)(F)F)c(NCc3nccnc3N(C)S(C)(=O)=O)n2)cc1 [defactinib]
Procedure, shortened: as §1

[2] = compound: CNc1nc(-c2ccc3c(N)n[nH]c3c2)cc(N2C[C@@H](C(=O)NC3CCCCC3)CC[C@H]2C)n1
Procedure, shortened: as §1

encorafenib = compound: COC(=O)N[C@@H](C)CNc1nccc(-c2cn(C(C)C)nc2-c2cc(Cl)cc(NS(C)(=O)=O)c2F)n1 [encorafenib]
Procedure, shortened: as §1

[3] = compound: COC(=O)[C@H](CCSC)NC(=O)C1=C(C=C(C=C1)NC[C@H](CS)N)C2=CC=CC=C2
Procedure, shortened: as §1

alisertib = compound: COc1cc(Nc2ncc3c(n2)-c2ccc(Cl)cc2C(c2c(F)cccc2OC)=NC3)ccc1C(=O)O [alisertib]
Procedure, shortened: as §1

[4] = compound: COc1cc2nc(-c3cc(F)ccc3O)nc(N[C@@H]3CNC[C@H]3C(C)(C)O)c2cc1OC
Procedure, shortened: as §1

gefitinib = compound: COc1cc2ncnc(Nc3ccc(F)c(Cl)c3)c2cc1OCCCN1CCOCC1 [gefitinib]
Procedure, shortened: as §1

lapatinib = compound: CS(=O)(=O)CCNCc1ccc(-c2ccc3ncnc(Nc4ccc(OCc5cccc(F)c5)c(Cl)c4)c3c2)o1 [lapatinib]
Procedure, shortened: as §1

pictilisib = compound: CS(=O)(=O)N1CCN(Cc2cc3nc(-c4cccc5[nH]ncc45)nc(N4CCOCC4)c3s2)CC1 [pictilisib]
Procedure, shortened: as §1

crizotinib = compound: C[C@@H](Oc1cc(-c2cnn(C3CCNCC3)c2)cnc1N)c1c(Cl)ccc(F)c1Cl [crizotinib]
Procedure, shortened: as §1

[5] = compound: C[C@H](C1=CC=C(C=C1)C(=O)NC2=C3C=CNC3=NC=C2)N
Procedure, shortened: as §1

duvelisib = compound: C[C@H](Nc1ncnc2nc[nH]c12)c1cc2cccc(Cl)c2c(=O)n1-c1ccccc1 [duvelisib]
Procedure, shortened: as §1

gandotinib = compound: Cc1cc(Nc2cc(CN3CCOCC3)c3nc(C)c(Cc4ccc(Cl)cc4F)n3n2)n[nH]1 [gandotinib]
Procedure, shortened: as §1

tozasertib = compound: Cc1cc(Nc2cc(N3CCN(C)CC3)nc(Sc3ccc(NC(=O)C4CC4)cc3)n2)n[nH]1 [tozasertib]
Procedure, shortened: as §1

doramapimod = compound: Cc1ccc(-n2nc(C(C)(C)C)cc2NC(=O)Nc2ccc(OCCN3CCOCC3)c3ccccc23)cc1 [doramapimod]
Procedure, shortened: as §1

bafetinib = compound: Cc1ccc(NC(=O)c2ccc(CN3CC[C@H](N(C)C)C3)c(C(F)(F)F)c2)cc1Nc1nccc(-c2cncnc2)n1 [bafetinib]
Procedure, shortened: as §1

[6] = compound: Cc1cccc(CC(=O)N2CCc3c2ccc(-c2cn(C)c4ncnc(N)c24)c3F)n1
Procedure, shortened: as §1

Measured: log2 fold change

SCAMP2 (UniProt O15127)
inactive: alvocidib -0.069 | Tubastatin A 0.106 | [1] 0.025 | defactinib 0.026 | [2] 0.003 | encorafenib 0.011 | [3] -0.093 | alisertib -0.094 | [4] 0.07 | gefitinib -0.019 | lapatinib 0.018 | pictilisib -0.005 | crizotinib 0.073 | [5] -0.076 | duvelisib 0.078 | gandotinib 0.016 | tozasertib -0.001 | doramapimod 0 | bafetinib -0.076 | [6] 0.006

SEC16A isoform 5 (UniProt O15027)
inactive: alvocidib -0.005 | Tubastatin A -0.09 | [1] 0.011 | defactinib -0.014 | [2] -0.002 | encorafenib 0.011 | [3] 0.01 | alisertib -0.001 | [4] 0.013 | gefitinib 0.014 | lapatinib -0.019 | pictilisib -0.044 | crizotinib 0.018 | [5] -0.039 | duvelisib -0.013 | gandotinib -0.014 | tozasertib -0.001 | doramapimod -0.002 | bafetinib 0.031 | [6] 0.029

SAP30BP (UniProt Q9UHR5)
inactive: alvocidib -0.079 | Tubastatin A 0.026 | [1] -0.033 | defactinib 0.014 | [2] 0.046 | encorafenib 0.062 | [3] -0.024 | alisertib -0.064 | [4] 0.023 | gefitinib 0.03 | lapatinib -0.011 | pictilisib -0.01 | crizotinib 0.013 | [5] -0.065 | duvelisib 0.013 | gandotinib 0.102 | tozasertib 0.058 | doramapimod -0.022 | bafetinib 0.02 | [6] 0.04

SCAMP1 (UniProt O15126)
inactive: alvocidib -0.118 | Tubastatin A 0.043 | [1] -0.059 | defactinib -0.027 | [2] 0.006 | encorafenib 0.011 | [3] -0.019 | alisertib 0.046 | [4] 0.038 | gefitinib 0.061 | lapatinib -0.02 | pictilisib -0.079 | crizotinib -0.012 | [5] 0.059 | duvelisib 0.022 | gandotinib 0.06 | tozasertib -0.024 | doramapimod -0.004 | bafetinib -0.038 | [6] 0.033

SBF1 isoform 4 (UniProt O95248)
inactive: alvocidib 0.005 | Tubastatin A 0.074 | [1] -0.054 | defactinib 0.022 | [2] -0.099 | encorafenib -0.004 | [3] -0.009 | alisertib 0.238 | [4] 0.008 | gefitinib 0.062 | lapatinib -0.029 | pictilisib -0.075 | crizotinib 0.088 | [5] 0.07 | duvelisib -0.039 | gandotinib -0.066 | tozasertib 0 | doramapimod -0.004 | bafetinib -0.061 | [6] 0.006

SCLT1 (UniProt Q96NL6)
inactive: alvocidib -0.08 | Tubastatin A 0.061 | [1] 0.007 | defactinib -0.044 | [2] 0.035 | encorafenib 0.07 | [3] 0.228 | alisertib 0.033 | [4] 0.055 | gefitinib -0.018 | lapatinib -0.032 | pictilisib -0.04 | crizotinib -0.07 | [5] 0.039 | duvelisib 0.035 | gandotinib -0.025 | tozasertib 0.102 | doramapimod 0.018 | bafetinib -0.106 | [6] 0.076

SART3, A0A499FI31
inactive: alvocidib 0.021 | Tubastatin A -0.064 | [1] 0.014 | defactinib 0.003 | [2] -0.017 | encorafenib -0.006 | [3] 0.057 | alisertib -0.003 | [4] 0.004 | gefitinib 0.013 | lapatinib -0.004 | pictilisib 0.034 | crizotinib -0.03 | [5] 0.04 | duvelisib 0.007 | gandotinib -0.053 | tozasertib 0.002 | doramapimod -0.026 | bafetinib -0.019 | [6] -0.022

SELENOS (UniProt Q9BQE4)
inactive: alvocidib 0.021 | Tubastatin A 0.037 | [1] 0.008 | defactinib 0.071 | [2] 0.006 | encorafenib 0.052 | [3] -0.076 | alisertib -0.009 | [4] -0.078 | gefitinib -0.059 | lapatinib -0.033 | pictilisib 0.012 | crizotinib 0.01 | [5] -0.002 | duvelisib -0.024 | gandotinib 0.02 | tozasertib -0.013 | doramapimod -0.054 | bafetinib 0.032 | [6] -0.059

SEC24D isoform 2 (UniProt O94855)
inactive: alvocidib -0.012 | Tubastatin A -0.018 | [1] 0.002 | defactinib 0.012 | [2] -0.008 | encorafenib 0.029 | [3] -0.163 | alisertib 0.005 | [4] 0.006 | gefitinib 0.006 | lapatinib 0.016 | pictilisib -0.03 | crizotinib 0 | [5] 0.031 | duvelisib 0.017 | gandotinib -0.02 | tozasertib 0.005 | doramapimod 0 | bafetinib -0.026 | [6] -0.019

SCARB1 isoform 2 (UniProt Q8WTV0)
inactive: alvocidib -0.024 | Tubastatin A 0.035 | [1] -0.016 | defactinib 0.036 | [2] 0.005 | encorafenib 0.038 | [3] -0.03 | alisertib 0.016 | [4] 0.012 | gefitinib 0.026 | lapatinib -0.01 | pictilisib -0.001 | crizotinib 0.01 | [5] -0.055 | duvelisib 0.011 | gandotinib 0.065 | tozasertib 0.012 | doramapimod -0.009 | bafetinib -0.024 | [6] -0.011

Quoted at random: two records from the list
SEC24D isoform 2 (UniProt O94855)
inactive: alvocidib -0.012 | Tubastatin A -0.018 | [1] 0.002 | defactinib 0.012 | [2] -0.008 | encorafenib 0.029 | [3] -0.163 | alisertib 0.005 | [4] 0.006 | gefitinib 0.006 | lapatinib 0.016 | pictilisib -0.03 | crizotinib 0 | [5] 0.031 | duvelisib 0.017 | gandotinib -0.02 | tozasertib 0.005 | doramapimod 0 | bafetinib -0.026 | [6] -0.019

SCARB1 isoform 2 (UniProt Q8WTV0)
inactive: alvocidib -0.024 | Tubastatin A 0.035 | [1] -0.016 | defactinib 0.036 | [2] 0.005 | encorafenib 0.038 | [3] -0.03 | alisertib 0.016 | [4] 0.012 | gefitinib 0.026 | lapatinib -0.01 | pictilisib -0.001 | crizotinib 0.01 | [5] -0.055 | duvelisib 0.011 | gandotinib 0.065 | tozasertib 0.012 | doramapimod -0.009 | bafetinib -0.024 | [6] -0.011

Next records follow:

SCAMP4 (UniProt Q969E2)
inactive: alvocidib 0 | Tubastatin A 0.025 | [1] 0.029 | defactinib -0.106 | [2] 0.041 | encorafenib 0.045 | [3] -0.049 | alisertib 0.005 | [4] 0.052 | gefitinib 0.023 | lapatinib -0.002 | pictilisib -0.041 | crizotinib 0.024 | [5] 0.036 | duvelisib 0.021 | gandotinib -0.032 | tozasertib -0.058 | doramapimod -0.056 | bafetinib -0.028 | [6] -0.028

SENP6 (UniProt Q9GZR1)
inactive: alvocidib -0.069 | Tubastatin A -0.003 | [1] 0 | defactinib -0.154 | [2] -0.006 | encorafenib -0.014 | [3] 0.013 | alisertib -0.093 | [4] -0.059 | gefitinib 0.087 | lapatinib -0.032 | pictilisib -0.022 | crizotinib 0.011 | [5] -0.004 | duvelisib 0.031 | gandotinib 0.039 | tozasertib 0.028 | doramapimod 0.01 | bafetinib 0.034 | [6] 0.049

SEPHS1 (UniProt P49903)
inactive: alvocidib 0.004 | Tubastatin A 0.026 | [1] 0.007 | defactinib -0.007 | [2] 0.05 | encorafenib -0.008 | [3] -0.004 | alisertib -0.011 | [4] -0.006 | gefitinib -0.015 | lapatinib -0.01 | pictilisib -0.015 | crizotinib 0.017 | [5] 0.009 | duvelisib 0.012 | gandotinib 0.009 | tozasertib 0.004 | doramapimod -0.015 | bafetinib 0.032 | [6] -0.042

SCPEP1 (UniProt Q9HB40)
inactive: alvocidib -0.034 | Tubastatin A 0.107 | [1] -0.011 | defactinib 0.004 | [2] -0.017 | encorafenib -0.023 | [3] 0.117 | alisertib -0.016 | [4] 0.011 | gefitinib 0.006 | lapatinib 0.011 | pictilisib -0.008 | crizotinib -0.035 | [5] 0.062 | duvelisib -0.009 | gandotinib -0.01 | tozasertib 0.063 | doramapimod -0.018 | bafetinib -0.058 | [6] -0.064

SEPTIN6 (UniProt Q14141)
inactive: alvocidib 0.014 | Tubastatin A 0.073 | [1] -0.007 | defactinib -0.025 | [2] -0.027 | encorafenib -0.002 | [3] -0.029 | alisertib -0.034 | [4] -0.015 | gefitinib -0.096 | lapatinib -0.009 | pictilisib -0.026 | crizotinib -0.026 | [5] -0.013 | duvelisib 0.014 | gandotinib -0.03 | tozasertib -0.011 | doramapimod 0.001 | bafetinib -0.004 | [6] -0.046
